Source: PubChem BioAssay AID1671195 (Yale University, 2021)
The whole screen tested about 22,000 reagents; this is a part drawn at random. About 1,510 of them (6.9%) count as active. 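Active includes knockdowns raising or lowering LDL uptake; positive z-scores mean more uptake, negative mean less.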 Entries without a mark were called inactive. The numbers tell different reagents against one gene apart.

- Test: 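Knockdowns that increase or decrease uptake of fluorescent LDL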 (primary screen)
- System: human Huh7 hepatoma cells
- Reagent: siRNA pool against human genes, 18 nM
- Timing: about 2 to 2.5 days of knockdown, then 8 h LDL uptake
- Treatment: DiI-labelled LDL at 30 µg/ml for 8 h, in lipoprotein-deficient serum medium
- Measured: 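Per-cell DiI-LDL intensity by automated imaging; well means scaled to the plate median and given as a robust z-score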
- Scale: robust z-score: higher = more LDL uptake after knockdown
- Active means: 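Active when two or more replicates show a robust z-score above 2 or below -2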

| gene symbol | reagent | robust z-score, replicate 1 | robust z-score, replicate 2 | robust z-score, replicate 3 |
| --- | --- | --- | --- | --- |
| RNF135 | 1 | 0.291 | 2.49 | 1.77 |
| SLC24A4 | 1 | 0.0979 | -0.388 | 0.0327 |
| SDHA | 1 | 1.01 | 1.06 | 0.681 |
| CORO1A | 1 | -1.7 | -1.97 | -1.48 |
| COMTD1 | 1 | -0.791 | -0.81 | -0.0448 |
| CYP7A1 | 1 | -1.73 | -0.902 | -1.52 |
| LRRC28 | 1 | 0.807 (active) | 2.11 | 2.22 |
| LOC389687 (retired record) | 1 | -1.23 | -0.877 | -1.35 |
| SYVN1 | 1 | -0.193 | -0.0779 | -0.0568 |
| IFNA8 | 1 | 0.44 | -0.219 | 1.07 |
| MRPS23 | 1 | -1.67 | 0.339 | -0.137 |
| CDK8 | 1 | 1.82 | 1.82 | 1.21 |
| UNC93A | 1 | -1.47 | -1.42 | -1.07 |
| SHH | 1 | 2.49 (active) | 2.17 | 3.48 |
| SLA2 | 1 | -0.175 | -0.0392 | -0.191 |
| RNASE12 | 1 | -0.0945 | 0.0612 | 0.107 |
| CNDP1 | 1 | 1.49 | 1.55 | 1.14 |
| REELD1 | 1 | -1.05 | -0.788 | -0.895 |
| GREM2 | 1 | -0.945 | -1.01 | -0.203 |
| USP32P2 | 1 | 0.748 | 1.11 | 0.943 |
| DDX1 | 1 | 0.531 (active) | -2.51 | -2.22 |
| MED7 | 1 | -0.354 | 2.01 | 0.256 |
| LOC390898 (retired record) | 1 | -0.354 | 0.123 | -0.0442 |
| CFHR2 | 1 | 0.867 | -0.948 | 0.29 |
| SGPL1 | 1 | 1.58 | 2.01 | 0.923 |
| SLC39A9 | 1 | -0.0276 | -0.212 | -0.337 |
| LOC392993 (retired record) | 1 | -0.764 | -0.348 | -0.581 |
| MARK4 | 1 | 0.135 | 0.0858 | 0.258 |
| H2BC18 | 1 | -0.69 | -0.411 | -0.251 |
| PTGES2-DT | 1 | -0.999 | -1.35 | -1.19 |
| KCND3 | 1 | -0.977 | -0.603 | -0.928 |
| QRSL1 | 1 | 1.6 | 1.47 | 1.92 |
| LOC440075 (retired record) | 1 | -0.373 | -0.132 | -0.476 |
| LINC02796 | 1 | 0.448 | 0.671 | 0.434 |
| CD244 | 1 | -0.186 | -1.13 | -0.5 |
| CARD19 | 1 | -0.329 | -0.556 | -1.26 |
| KRT38 | 1 | -0.422 | -1.24 | -0.83 |
| CCR5 | 1 | 1.07 | 0.596 | 1.35 |
| NBEA | 1 | 0.0768 | -2.34 | -0.343 |
| SDAD1 | 1 | -0.817 | -1.3 | 0.169 |
| SCYL1 | 1 | 0.476 | -0.415 | -1.02 |
| LOC440141 (retired record) | 1 | -1.55 | -1.44 | -1.84 |
| ENTPD2 | 1 | -1.68 | -1.62 | -2.12 |
| ANGPT2 | 1 | -1.29 | -0.312 | -0.687 |
| MRPS33 | 1 | -1.69 | -0.0756 | -0.0994 |
| BTBD8 | 1 | 1.2 | -0.786 | 0.429 |
| BTBD8 | 2 | -1.11 | -1.11 | -1.11 |

A stretch taken from the entries so far, as a working copy:
| gene symbol | reagent | robust z-score, replicate 1 | robust z-score, replicate 2 | robust z-score, replicate 3 |
| --- | --- | --- | --- | --- |
| GREM2 | 1 | -0.945 | -1.01 | -0.203 |
| USP32P2 | 1 | 0.748 | 1.11 | 0.943 |
| DDX1 | 1 | 0.531 (active) | -2.51 | -2.22 |
| MED7 | 1 | -0.354 | 2.01 | 0.256 |
| LOC390898 (retired record) | 1 | -0.354 | 0.123 | -0.0442 |
| CFHR2 | 1 | 0.867 | -0.948 | 0.29 |
| SGPL1 | 1 | 1.58 | 2.01 | 0.923 |
